The name of at least one read-out is uncertain.
Columns and labels:
Format in all cases: biochemical
[1] = CoA synthetase assay (DTNB), substrate butyrate
[2] = 4-hydroxybutyrate-CoA synthetase assay (DTNB; HPLC confirmation); settings: substrate 4-hydroxybutyrate
Method: A time point (0 min) was taken before heating.
The soluble, heat-treated lysate was loaded onto the column with binding buffer (50 mM sodium phosphate, 300 mM NaCl, 20 mM imidazole, pH 7.4) and the his-tagged enzyme removed with elution buffer (50 mM sodium phosphate, 300 mM NaCl, 500 mM imidazole, pH 7.4).

[3] = CoA synthetase (acyl-CoA ligase) assay, disappearance of CoA (DTNB), substrate acetate
[4] = CoA synthetase assay (DTNB), substrate valerate
[5] = CoA synthetase assay (DTNB), substrate propionate
[6] = CoA synthetase assay (DTNB), substrate 3-hydroxypropionate
[7] = 4-hydroxybutyryl-CoA dehydratase coupled spectrophotometric assay; settings: 70° C
Method: 4-hydroxybutyryl-CoA dehydratase (Msed_1321). The enzyme was purified using a 5 ml Bio-Scale Mini Profinity IMAC cartridge (Bio-Rad). The soluble, heat-treated lysate was loaded onto the column with binding buffer (50 mM Tris, 300 mM NaCl, 3.5 mM DTT, 20 mM imidazole, pH 8.0) and the his-tagged enzyme removed with elution buffer (50 mM Tris, 300 mM NaCl, 3.5 mM DTT, 500 mM imidazole, pH 8.0). The fraction collector was positioned inside the anaerobic chamber, and fractions containing enzyme were collected, concentrated, and dialyzed into reaction buffer (100 mM potassium phosphate, pH 7.5, 1 mM DTT). The enzyme solution was either stored at room temperature inside the anaerobic chamber for immediate use or mixed with glycerol to 20% and stored at −20° C. in a sealed vacuum dessicator. Enzyme activity was measured aerobically in a coupled spectrophotometric assay at 70° C. The assay mixture contained 20 mM sodium phosphate, 5 mM MgCl2, 2 mM 4HB, 2 mM ATP, 1 mM CoA, 2 mM NAD^+, 1 mM DTT, 1 mg/ml purified Msed_0406, and 42 ng/ml Msed_0399. The reaction mixture was pre-heated for 5 min at 70° C. to allow accumulation of 4HB-CoA, and then initiated by addition of purified Msed_1321. For the oxygen-sensitivity assay, Msed_1321 was washed with 100 mM potassium phosphate, pH 7.5, to remove any DTT from the reaction buffer. […]

[8] = Crotonyl-CoA hydratase assay, NAD+ reduction at 340 nm; settings: C-CoA; 70° C
Method: (§1) Crotonyl-CoA hydratase/(S)-3-Hydroxybutyryl-CoA dehydrogenase (Msed_0399). The enzyme was purified first using a Q-sepharose HiLoad 16/10 anion exchange column (GE Healthcare). The protein was loaded onto the column with 20 mM Tris, pH 8.0, and eluted with 20 mM Tris, 1 M NaCl, pH 8.0 using a linear elution gradient. Fractions containing Msed_0399 were confirmed with SDS-PAGE, collected and dialyzed into buffer for size exclusion chromatography (50 mM potassium phosphate, 150 mM NaCl, pH 7.0). The partially-purified protein was further separated on a HiLoad 26/600 Superdex 200 PG column, and the elution fractions containing Msed_0399 were collected, concentrated, and dialyzed into reaction buffer (100 mM MOPS, pH 7.5), and then either stored at 4° C. for immediate use or mixed with glycerol to 20% and stored at −20° C. Enzyme activity was measured spectrophotometrically at 70° C. by following NAD^+ reduction at 340 nm (extinction coeffienct at 340 nm=[…]) (Berg et al., 2007. Science 318:1782-1786). The assay mixture contained 20 mM MOPS (pH 7.0), 5 mM MgCl2, 2 mM NAD^+, 0.5 mM crotonyl-CoA or (S)-3-hydroxybutyryl-CoA, and purified enzyme. The reaction mixture was preheated for 2 min at 70° C. and the reaction initiated by addition of substrate.

[9] = (S)-3-Hydroxybutyryl-CoA dehydrogenase assay, NAD+ reduction at 340 nm; settings: 3HB-CoA; 70° C
Method: as §1

[10] = Acetoacetyl-CoA β-ketothiolase discontinuous DTNB assay; settings: 70° C

B1: Metallosphaera sedula acyl-CoA synthetase (4-hydroxybutyrate:CoA ligase) Msed_0406, SEQ ID NO:14, recombinant (Metallosphaera sedula DSM 5348) (protein)
chain: MVTVQDFFRKFIEFQNSPNEKSLQEIVKLVGQLDLRRFNWVRDVFEDIHVKERGSKTALIWRDINTGEEAKLSYHELSLMSNRVLSTLRKHGLKKGDVVYLMTKVHPMHWAVFLAVIKGGFVMVPSATNLTVAEMKYRFSDLKPSAIISDSLRASVMEEALGSLKVEKFLIDGKRETWNSLEDESSNAEPEDTRGEDVIINYFTSGTTGMPKRVIHTAVSYPVGSITTASIVGVRESDLHLNLSATGWAKFAWSSFFSPLLVGATVVGINYEGKLDTRRYLGEVENLGVTSFCAPPTAWRQFITLDLDQFRFERLRSVVSAGEPLNPEVIKIWKDKFNLTIRDFYGQTETTAMVGNFPFLKVKPGSMGKPHPLYDIRLLDDEGKEITKPYEVGHITVKLNPRPIGLFLGYSDEKKNMESFREGYYYTGDKAYFDEEGYFYFVGRGDDVIKTSDYRVGPFEVESALLEHPAVAEAAVVGVPDTVRWQLVKAYIVLKKGYMPSKELAEEIREKMKTLLSPYKVPRIIEFVDELPKTISGKIRRVELRKREEEKRKKGEVGQNEYVF
[1]
  kcat/Km: 26000 M⁻¹ s⁻¹
[2]
  kcat/Km: 910 M⁻¹ s⁻¹
[3]
  kcat/Km: 3200 M⁻¹ s⁻¹
[4]
  kcat/Km: 7500 M⁻¹ s⁻¹
[5]
  kcat/Km: 43000 M⁻¹ s⁻¹
[6]
  kcat/Km: 3200 M⁻¹ s⁻¹

B2: Msed_1353-G424: single substitution mutant (Trp424 to Gly) of acetate/propionate synthetase Msed_1353, SEQ ID NO:18 (protein, listed as Metallosphaera sedula)
chain: MSQPENESGLPFQEKVVPELLKHRLVTPEEYLRIHKKTVENYQEYWESVAKELDWFKPWEKALDDSHPPFYKWFVGGELNASYLAVDRHANSWRRNKVAIIWEGEPWENGPKEVRKLTYLDLYREVNRAAYLLKEVYGLKKGDTIGIYLPMIPELPIFMLAAARLGVAFTVVFSGFSAQAVADRMNDADTKLLITADGGWRRGKVIPLKEIVDKALETATTVKNVLVVRRTGTEISMKPGRDAYLHDVMSKVPIKAYVEPERVKSEDPLYILYTSGTTGKPKGIIHDTGGYMTLLHNTMKLVFDIRDTDVFWCTADIGWVTGHSYIVFGPLQEGATEVMYEGALDFPEPDRWVSIIERHQVSILYTSPTAIRTFMKQGEQWIKKHDVSSVRLMHSVGEPINPEAWRWFHKLVGRGQVPFGSTWGMTETGGIMISHMPGGYLVPMKPGTNGPPLLGIETNVFDEEGKPMPEEQKGYLVITKPWPGMPLTINKDPERYVKVYWNKFPNVFYAGDYAIKDRDGYFWILGRADEVMKIAGHRIGTYELESALVQHPAIAEAAVVGVPDPVRGEVAEAFVILRSGVEPSAKLREEIVKFVRENFGPIAVFREIHFVSKLPKTRSGKIMRRVIKAVATNSPVGDVTTLEDEASVEEVKKAFQELKEQVGK
[2]
  kcat/Km: 2180 M⁻¹ s⁻¹

B3: Msed_1321: M. sedula 4-hydroxybutyryl-CoA dehydratase, SEQ ID NO:15 (protein, listed as Metallosphaera sedula)
chain: MVVRTGEQYLQSISNRSKVEIYVMGREVKDVTKHPFLKPSVMSFKATFDAAWEEDTKELGRAWSPYLEEEINRFNHIHRSPDDLAAKVKLLRKLSHKTGACFQRCVGWDSLNTLHIVTTMMAKKGKTEVRDRFVEYLKYVQKNDLALAGAMTDAKGIRNLKPSQQPNKNAYLRITEVTKDGIYVSGAKANITGVAATEEMVVLPTRAMGPEDKDYAVAFAIPTDTEGVKIVVGRQLNDARRMEEGEIDGLPYFYNHEGLVIFDNVFVPMNRVFLAGEWEYTGTLVEIFSAYHRQGYGGCKAGLGDVIIGASADLAKQIGVDRASHVQDKLTEMIFLTETMYSAGIAASLNAVKMCDNCWWVNPMHANVTKHLVARFPSQIAQLSIDLAGGIVGTAPSEWDLKNPKLKEYISRYLQGAEDFTAEDRLRMVRLVENVSMGVAFQIESVHGAGSPAAQRIMFSRLYDLNFAQEVAKKLAGRKSEVKFTSKAEPWRESQSEAEAKEAGLKS
[7]
  kcal/Km: 14000 M⁻¹ s⁻¹

B4: Metallosphaera sedula crotonyl-CoA hydratase/(S)-3-hydroxybutyryl-CoA dehydrogenase Msed_0399, SEQ ID NO:16, recombinant (Metallosphaera sedula DSM 5348) (protein)
chain: MKVTVIGSGVMGHGIAELAAIAGNEVWMNDISTEILQQAMERIKWSLSKLRESGSLKEGVEQVLARIHPETDQAQALKGSDFVIEAVKEDLELKRTIFRNAEAHASPSAVLATNTSSLPISEIASVLKSPQRVVGMHFFNPPVLMPLVEIVRGKDTSDEVVKTTAEMAKSMNKETIVVKDVPGFFVNRVLLRIMEAGCYLVEKGIASIQEVDSSAIEELGFPMGVFLLADYTGLDIGYSVWKAVTARGFKAFPCSSTEKLVSQGKLGVKSGSGYYQYPSPGKFVRPTLPSTSKKLGRYLISPAVNEVSYLLREGIVGKDDAEKGCVLGLGLPKGILSYADEIGIDVVVNTLEEMRQTSGMDHYSPDPLLLSMVKEGKLGRKSGQGFHTYAHEEAKYSTIVVRVEPPLAWIVLNRPTRYNAINGDMIREINQALDSLEEREDVRVIAITGQGRVFSAGADVTEFGSLTPVKAMIASRKFHEVFMKIQFLTKPVIAVINGLALGGGMELALSADFRVASKTAEMGQPEINLGLIPGGGGTQRLSRLSGRKGLELVLTGRRVKAEEAYRLGIVEFLAEPEELESEVRKLANAIAEKSPLAVASAKLAYKLGEETHIWTGTSLEASLFGLLFSTKDFEEGVRAFLEKRKPNFRGE
[8]
  kcal/Km: 260000 M⁻¹ s⁻¹
[9]
  kcal/Km: 260000 M⁻¹ s⁻¹

B5: Metallosphaera sedula acetoacetyl-CoA β-ketothiolase Msed_0656, SEQ ID NO:17, recombinant (Metallosphaera sedula DSM 5348) (protein)
chain: MPDVYIVSAVRTPIGRFGGSLKSVKPQMLGAIAIKEALRRANTDPSRVELTIMGNVLRSGHGQDLARQAALLAGIPWEVDGYCVDMVCSSGMMGVTNAAQMIKSGDADVVVAGGMESMSQSMLAVNSEVRWGVKFLSGKSLNFIDTMLVDGLTDPFNLKLMGQEADMVARERDISRRELDEVAFESHRRAHQAWEKGLFKSEVIPVNLDEGKLERDEGIRPDTTMEKLSSLKPAFTENGYHTAGNSSQISDGAVAMVLMSEKAVKEFGVDPVAKILGYSWVGIESWRFTEAPLYSVRKLLTRLNMNITQFDYFENNEAFAVNNVLFHRYLGVPYDQLNVFGGAIALGHPIGASGARIMVTLLNVLSKMNATRGIASICHGVGGSTAIALELLRPL
[10]
  kcal/Km: 5.6e+06 M⁻¹ s⁻¹

Source: US10227617B2, “Sequestration of carbon dioxide with hydrogen to useful products” (UNIVERSITY OF GEORGIA RESEARCH FOUNDATION, INC., priority 2012, dated 2019)
